The supplement of paper PMC12823440, “Inhibitors supercharge kinase turnover through native proteolytic circuits” (Nature, 2025)
Structures can show the parent of a compound that is named as a salt. Some of the results follow. The calls rarely recur for the same compound in another form.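 Kinases were expressed as nanoluciferase fusions in K562 cells and luminescence was read every 4 h between 2 and 18 h as percent of control, DMSO set to 100% and a positive control to 0%. A time point counts as decreased when the signal drops significantly (2 sigma). The hit call is the authors' own, does not follow from the count of time points alone, and its rule is not shown.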

Protein sequences, listed by entry. Tags and fused reporters are not part of them.
UniProt Q15118, whole entry, looked up: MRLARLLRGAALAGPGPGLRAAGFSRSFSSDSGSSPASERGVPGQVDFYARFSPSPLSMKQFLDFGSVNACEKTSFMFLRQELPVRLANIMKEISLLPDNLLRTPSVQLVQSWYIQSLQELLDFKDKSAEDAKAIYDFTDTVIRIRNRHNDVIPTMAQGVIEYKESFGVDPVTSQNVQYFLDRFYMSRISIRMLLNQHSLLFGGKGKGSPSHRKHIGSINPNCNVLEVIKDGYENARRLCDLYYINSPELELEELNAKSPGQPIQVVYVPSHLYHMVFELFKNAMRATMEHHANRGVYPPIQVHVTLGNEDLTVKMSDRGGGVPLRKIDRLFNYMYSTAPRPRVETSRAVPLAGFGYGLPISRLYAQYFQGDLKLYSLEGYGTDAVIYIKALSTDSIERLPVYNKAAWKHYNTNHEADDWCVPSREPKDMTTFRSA

These compounds were tested against PDK1 (UniProt Q15118) (assay: kinase-Nluc reporter destabilization hit call (1 = scored as downregulated) (binary); higher = compound decreases kinase abundance). Conditions: K562; 2-18 h.

Row | Structure (SMILES) | kinase-Nluc reporter destabilization hit call
1 | C=CC(=O)N1CCC[C@@H](n2c(=O)n(-c3ccc(Oc4ccccc4)cc3)c3c(N)nccc32)C1 [Tolebrutinib] (10 µM) | inactive: 0
2 | C[C@]1(O)C[C@@](N)(c2ccc(-c3nc4n(c3-c3ccccc3)COc3ccncc3-4)cc2)C1 [TAS-117 (hydrochloride)] (10 µM) | inactive: 0
3 | CCOC(=O)C1=C[C@]2(CC)CCCN3CCc4c(n1c1ccccc41)[C@@H]32 [Vinpocetine] (10 µM) | inactive: 0
4 | CC(C)(C)NS(=O)(=O)c1cncc(-c2cc(F)c3nc(N)nn3c2)c1 (10 µM) | inactive: 0
5 | CC(C)(C)c1ccc(C(=O)Nc2cn3cc(-n4ccnc4)ccc3n2)cc1 (10 µM) | inactive: 0
6 | Cc1nc(NC(=O)N2CCC[C@H]2C(N)=O)sc1-c1csc(C(C)(C)C)n1 (10 µM) | inactive: 0
7 | N#Cc1cn([C@@H]2O[C@H](CO)[C@@H](O)[C@H]2O)c2nc[nH]c(=O)c12 [Jaspamycin] (10 µM) | inactive: 0
8 | Cc1ccc(-c2csc(Cn3nc(CC4OCCCO4)c4ccccc4c3=O)n2)cc1 (10 µM) | inactive: 0
9 | CNC(=O)c1c(C)oc2cc(Oc3ncnc4cc(OC)c(OC)cc34)ccc12 [Fruquintinib] (10 µM) | inactive: 0
10 | O=S(=O)(N=Cc1c(O)ccc2ccccc12)c1cccs1 (10 µM) | inactive: 0
11 | NC(=O)c1cccc2c(N[C@H](CN3CCC3)c3ccc(Cl)c(C(F)(F)F)c3)ncnc12 (10 µM) | inactive: 0
12 | CN1CCC(c2ccccc2CC(C)(C)Nc2nc(N3CCOCC3)nc(-n3c(S(C)(=O)=O)nc4ccccc43)n2)CC1 (10 µM) | inactive: 0
13 | O=c1ccc2cc(O)c(O)cc2o1 [Esculetin] (10 µM) | inactive: 0
14 | O=C(Nc1nc2cccc(-c3ccc(CN4CCS(=O)(=O)CC4)cc3)n2n1)C1CC1 [Filgotinib] (2.5 µM) | inactive: 0
15 | CC(C)(O)c1cc2nc(-c3cnc(N)nc3)nc(N3CCOCC3)c2s1 (2.5 µM) | inactive: 0
16 | Cn1cc(-c2ccc3ncc(Cc4ccc5ncccc5c4)n3n2)cn1 (10 µM) | inactive: 0
17 | CC(=O)c1cc(O)ccc1O [2,5-Dihydroxyacetophenone] (10 µM) | inactive: 0

Arranged by SMILES length (largest number first): part of the list above
Row | Structure (SMILES) | kinase-Nluc reporter destabilization hit call
12 | CN1CCC(c2ccccc2CC(C)(C)Nc2nc(N3CCOCC3)nc(-n3c(S(C)(=O)=O)nc4ccccc43)n2)CC1 (10 µM) | inactive: 0
2 | C[C@]1(O)C[C@@](N)(c2ccc(-c3nc4n(c3-c3ccccc3)COc3ccncc3-4)cc2)C1 [TAS-117 (hydrochloride)] (10 µM) | inactive: 0
11 | NC(=O)c1cccc2c(N[C@H](CN3CCC3)c3ccc(Cl)c(C(F)(F)F)c3)ncnc12 (10 µM) | inactive: 0
7 | N#Cc1cn([C@@H]2O[C@H](CO)[C@@H](O)[C@H]2O)c2nc[nH]c(=O)c12 [Jaspamycin] (10 µM) | inactive: 0
3 | CCOC(=O)C1=C[C@]2(CC)CCCN3CCc4c(n1c1ccccc41)[C@@H]32 [Vinpocetine] (10 µM) | inactive: 0
5 | CC(C)(C)c1ccc(C(=O)Nc2cn3cc(-n4ccnc4)ccc3n2)cc1 (10 µM) | inactive: 0
15 | CC(C)(O)c1cc2nc(-c3cnc(N)nc3)nc(N3CCOCC3)c2s1 (2.5 µM) | inactive: 0
16 | Cn1cc(-c2ccc3ncc(Cc4ccc5ncccc5c4)n3n2)cn1 (10 µM) | inactive: 0
10 | O=S(=O)(N=Cc1c(O)ccc2ccccc12)c1cccs1 (10 µM) | inactive: 0
13 | O=c1ccc2cc(O)c(O)cc2o1 [Esculetin] (10 µM) | inactive: 0

Remaining list, next part

Row | Structure (SMILES) | kinase-Nluc reporter destabilization hit call
18 | COc1ccc(COc2cc3oc(=O)c4cc(C(C)O)ccc4c3cc2OC)cc1 (stereo not drawn) [Palomid 529] (2.5 µM) | inactive: 0
19 | O=C(CC(c1ccccc1)C(C(=O)O)C(=O)O)c1ccc(C(F)(F)F)cc1 (stereo not drawn) (10 µM) | inactive: 0
20 | CC(C)[C@H](CO)Nc1nc(Nc2ccc(C(=O)O)c(Cl)c2)c2ncn(C(C)C)c2n1 [Purvalanol B] (10 µM) | inactive: 0
21 | COc1cc2nccc(Oc3ccc(NC(=O)Nc4ccc(F)cc4F)c(F)c3)c2cc1OC (10 µM) | inactive: 0
22 | N#C/C(=C\c1ccc[nH]1)c1ccc(Cl)c(Cl)c1 (2.5 µM) | inactive: 0
23 | O=c1cc(-c2ccc(O)cc2)oc2cc(O)c(O)c(O)c12 [Scutellarein] (10 µM) | inactive: 0
24 | CC(C)n1nc(C#Cc2ccccc2)c2c(N)ncnc21 (10 µM) | inactive: 0
25 | O=C(N=c1sccn1Cc1ccccc1)c1c[nH]c2ncccc12 (10 µM) | inactive: 0
26 | CC(C)=C/C=C1\O[C@@H]2CC(C)=CC(=O)[C@@H]2[C@]1(C)O [Bisabolangelone] (10 µM) | inactive: 0
27 | COc1ccc(C2CC(c3ccc(Cl)cc3)=NN2c2nc(-c3ccncc3)cs2)cc1 (stereo not drawn) [mTOR inhibitor-8] (10 µM) | inactive: 0
28 | Cc1cc(F)c(Nc2ncnc3cc(OCc4ccccc4)ccc23)cc1O (10 µM) | inactive: 0
29 | CNCCOc1ccccc1C(C)(C)Nc1nccn(-c2cc(C(=O)NC3CC3)ccc2C)c1=O [p38α inhibitor 2] (10 µM) | inactive: 0
30 | CCn1c(-c2nonc2N)nc2c(C#CCO)ncc(OCCCN)c21 [AKT Kinase Inhibitor] (10 µM) | inactive: 0
31 | NC(=O)c1nc(-c2c(F)cccc2Cl)oc1Nc1ccc(C(=O)N2CCOCC2)cc1 (10 µM) | inactive: 0
32 | O=C(NCc1cccc(O)c1)c1cc2cc(F)ccc2[nH]1 (10 µM) | inactive: 0
33 | Cc1nc(Nc2ncc(C(=O)Nc3c(C)cccc3Cl)s2)cc(N2CCN(C(=O)CCCCCCC(=O)N[C@H](C(=O)N3C[C@H](O)C[C@H]3C(=O)NCc3ccc(-c4scnc4C)cc3)C(C)(C)C)CC2)n1 (2.5 µM) | inactive: 0
